Reference: article PMC4516353
Where a chain is given by its changes, count along the chain named. No constants are given. Whether binding was seen depends on the method and setting. In cells and extracts the contact can be indirect. Binding calls can cover weak binding; strength is not graded here. Where a sequence is shown, tags or fusion partners need not be part of it.

What was measured:
Test in all cases: co-IP; COS-7 cells electroporated with 200 ng of pQM plasmids, collected 24 h later; immunoprecipitation with anti-E2Tag antibody 5E11; immunoblot for E2Tag or WBSCR22 and TRMT112
[1] = target: T1, E2Tag-WBSCR22-KT/AA (human) (UniProt O43709)
T1 sequence: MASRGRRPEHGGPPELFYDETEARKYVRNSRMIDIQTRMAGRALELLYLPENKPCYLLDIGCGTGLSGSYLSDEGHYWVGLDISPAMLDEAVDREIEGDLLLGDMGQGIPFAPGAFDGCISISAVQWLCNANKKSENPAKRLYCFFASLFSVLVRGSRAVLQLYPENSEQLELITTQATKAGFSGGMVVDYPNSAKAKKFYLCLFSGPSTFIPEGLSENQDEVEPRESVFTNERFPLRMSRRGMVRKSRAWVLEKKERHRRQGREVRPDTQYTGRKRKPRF

[2] = target: T2, E2Tag-WBSCR22-D117A (human) (UniProt O43709)
T2 sequence: T1 sequence with A112K, A115T, D117A

[3] = target: T3, E2Tag-WBSCR22-MTD (human) (UniProt O43709)
T3 sequence: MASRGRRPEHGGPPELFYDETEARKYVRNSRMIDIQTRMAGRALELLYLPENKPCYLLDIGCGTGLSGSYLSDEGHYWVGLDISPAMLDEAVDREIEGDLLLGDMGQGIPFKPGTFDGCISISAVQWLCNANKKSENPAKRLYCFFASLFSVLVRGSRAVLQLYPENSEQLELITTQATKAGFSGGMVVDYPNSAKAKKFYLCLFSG

[4] = target: T4, E2Tag-WBSCR22 (transiently expressed in COS-7 cells) (human) (UniProt O43709)
T4 sequence: T1 sequence with A112K, A115T

binding [1]: binds | binding [2]: binds | binding [4]: binds
Substance: TRMT112 (endogenous, COS-7 cells)
binding [3]: binds
